Assay results reported in the supplement of paper PMC12819154, “High-throughput peptide-centric local stability assay extends protein–ligand identification to membrane proteins, tissues and bacteria” (Nature Structural & Molecular Biology, 2025).
The other results are listed elsewhere or left out. Most values lie at the level of the controls, where differences are scatter.

Chains of the proteins cited; added tags and fusions are not shown. Lines headed by an entry give the natural chain unless they say otherwise; changes in a name come on top.
UniProt Q64339: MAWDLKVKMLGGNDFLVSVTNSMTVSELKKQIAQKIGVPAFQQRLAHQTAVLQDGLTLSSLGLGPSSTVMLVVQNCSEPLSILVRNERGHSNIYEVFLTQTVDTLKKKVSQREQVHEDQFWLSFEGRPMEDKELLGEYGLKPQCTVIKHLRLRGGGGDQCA
UniProt Q62376, whole entry: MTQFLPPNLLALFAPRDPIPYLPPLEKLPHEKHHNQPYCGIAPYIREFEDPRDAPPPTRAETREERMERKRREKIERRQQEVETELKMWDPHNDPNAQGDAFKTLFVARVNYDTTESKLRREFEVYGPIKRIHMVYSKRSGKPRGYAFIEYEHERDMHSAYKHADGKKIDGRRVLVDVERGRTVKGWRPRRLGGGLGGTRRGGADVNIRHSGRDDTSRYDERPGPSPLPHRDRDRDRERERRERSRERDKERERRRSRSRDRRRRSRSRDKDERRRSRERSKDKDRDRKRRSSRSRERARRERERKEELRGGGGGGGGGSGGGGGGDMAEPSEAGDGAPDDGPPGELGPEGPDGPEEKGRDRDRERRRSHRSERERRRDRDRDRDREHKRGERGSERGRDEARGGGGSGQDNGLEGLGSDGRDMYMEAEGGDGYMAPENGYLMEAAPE
UniProt Q64737: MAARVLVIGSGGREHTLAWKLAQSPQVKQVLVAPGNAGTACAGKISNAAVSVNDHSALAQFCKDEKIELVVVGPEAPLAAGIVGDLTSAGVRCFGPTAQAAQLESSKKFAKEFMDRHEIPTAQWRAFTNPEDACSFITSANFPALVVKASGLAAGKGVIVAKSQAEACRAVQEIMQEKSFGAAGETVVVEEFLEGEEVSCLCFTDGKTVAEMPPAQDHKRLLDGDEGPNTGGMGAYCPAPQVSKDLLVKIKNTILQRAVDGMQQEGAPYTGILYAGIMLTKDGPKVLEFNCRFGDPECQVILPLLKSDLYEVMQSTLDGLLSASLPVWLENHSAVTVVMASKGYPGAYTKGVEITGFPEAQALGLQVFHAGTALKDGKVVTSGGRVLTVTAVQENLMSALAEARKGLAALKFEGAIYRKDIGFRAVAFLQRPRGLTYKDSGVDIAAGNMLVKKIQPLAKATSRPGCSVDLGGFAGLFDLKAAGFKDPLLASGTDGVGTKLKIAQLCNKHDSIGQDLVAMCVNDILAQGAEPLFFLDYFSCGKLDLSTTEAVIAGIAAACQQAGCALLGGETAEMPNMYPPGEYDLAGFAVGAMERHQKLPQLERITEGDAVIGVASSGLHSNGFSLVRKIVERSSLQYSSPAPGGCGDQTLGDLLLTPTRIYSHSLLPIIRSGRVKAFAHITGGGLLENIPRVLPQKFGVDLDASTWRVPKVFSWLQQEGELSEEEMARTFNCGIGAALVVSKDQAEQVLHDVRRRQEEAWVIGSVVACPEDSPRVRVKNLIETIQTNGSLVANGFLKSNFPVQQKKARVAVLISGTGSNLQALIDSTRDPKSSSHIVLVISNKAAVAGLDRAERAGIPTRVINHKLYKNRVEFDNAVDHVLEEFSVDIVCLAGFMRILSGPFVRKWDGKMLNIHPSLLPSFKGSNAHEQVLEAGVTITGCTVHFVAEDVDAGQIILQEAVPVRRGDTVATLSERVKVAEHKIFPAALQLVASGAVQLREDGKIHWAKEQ
UniProt Q64430: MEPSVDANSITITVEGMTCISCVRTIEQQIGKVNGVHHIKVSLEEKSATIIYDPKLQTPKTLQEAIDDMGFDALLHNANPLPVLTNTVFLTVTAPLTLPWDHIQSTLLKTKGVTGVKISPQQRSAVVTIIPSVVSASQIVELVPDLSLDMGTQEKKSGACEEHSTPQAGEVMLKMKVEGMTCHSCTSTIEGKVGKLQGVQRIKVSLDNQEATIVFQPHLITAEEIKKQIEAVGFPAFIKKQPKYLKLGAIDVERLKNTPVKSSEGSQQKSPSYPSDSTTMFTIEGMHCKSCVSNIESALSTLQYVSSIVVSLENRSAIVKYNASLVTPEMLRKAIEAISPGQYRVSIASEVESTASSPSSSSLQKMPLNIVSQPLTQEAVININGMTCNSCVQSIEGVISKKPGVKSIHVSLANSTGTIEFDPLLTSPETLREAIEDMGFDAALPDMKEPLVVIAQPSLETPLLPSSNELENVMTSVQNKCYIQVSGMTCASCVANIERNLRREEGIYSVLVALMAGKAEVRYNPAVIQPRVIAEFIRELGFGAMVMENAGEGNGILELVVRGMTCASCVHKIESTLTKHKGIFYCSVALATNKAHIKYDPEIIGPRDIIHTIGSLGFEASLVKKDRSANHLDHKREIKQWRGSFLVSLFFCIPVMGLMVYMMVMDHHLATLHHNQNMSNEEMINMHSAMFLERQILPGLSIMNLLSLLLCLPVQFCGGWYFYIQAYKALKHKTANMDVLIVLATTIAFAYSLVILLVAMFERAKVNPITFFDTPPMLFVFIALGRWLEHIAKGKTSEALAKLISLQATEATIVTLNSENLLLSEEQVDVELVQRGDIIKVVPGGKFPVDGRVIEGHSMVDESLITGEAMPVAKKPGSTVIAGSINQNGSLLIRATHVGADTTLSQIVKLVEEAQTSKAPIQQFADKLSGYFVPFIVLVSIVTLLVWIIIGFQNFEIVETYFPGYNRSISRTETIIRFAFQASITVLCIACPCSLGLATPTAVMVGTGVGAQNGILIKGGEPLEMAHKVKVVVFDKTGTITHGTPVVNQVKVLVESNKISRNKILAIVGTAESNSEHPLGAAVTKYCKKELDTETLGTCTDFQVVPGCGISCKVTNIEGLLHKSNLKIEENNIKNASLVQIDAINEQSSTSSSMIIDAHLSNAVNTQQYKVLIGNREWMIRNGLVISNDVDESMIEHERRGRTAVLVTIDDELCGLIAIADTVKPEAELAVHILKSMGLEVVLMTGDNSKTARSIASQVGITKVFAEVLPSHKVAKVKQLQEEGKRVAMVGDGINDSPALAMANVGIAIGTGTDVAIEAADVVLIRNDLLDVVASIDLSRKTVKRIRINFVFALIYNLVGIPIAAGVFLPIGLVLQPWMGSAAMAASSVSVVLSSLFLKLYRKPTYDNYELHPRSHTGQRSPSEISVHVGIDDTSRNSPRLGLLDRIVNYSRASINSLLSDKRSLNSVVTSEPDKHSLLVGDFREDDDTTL
UniProt Q69ZJ7: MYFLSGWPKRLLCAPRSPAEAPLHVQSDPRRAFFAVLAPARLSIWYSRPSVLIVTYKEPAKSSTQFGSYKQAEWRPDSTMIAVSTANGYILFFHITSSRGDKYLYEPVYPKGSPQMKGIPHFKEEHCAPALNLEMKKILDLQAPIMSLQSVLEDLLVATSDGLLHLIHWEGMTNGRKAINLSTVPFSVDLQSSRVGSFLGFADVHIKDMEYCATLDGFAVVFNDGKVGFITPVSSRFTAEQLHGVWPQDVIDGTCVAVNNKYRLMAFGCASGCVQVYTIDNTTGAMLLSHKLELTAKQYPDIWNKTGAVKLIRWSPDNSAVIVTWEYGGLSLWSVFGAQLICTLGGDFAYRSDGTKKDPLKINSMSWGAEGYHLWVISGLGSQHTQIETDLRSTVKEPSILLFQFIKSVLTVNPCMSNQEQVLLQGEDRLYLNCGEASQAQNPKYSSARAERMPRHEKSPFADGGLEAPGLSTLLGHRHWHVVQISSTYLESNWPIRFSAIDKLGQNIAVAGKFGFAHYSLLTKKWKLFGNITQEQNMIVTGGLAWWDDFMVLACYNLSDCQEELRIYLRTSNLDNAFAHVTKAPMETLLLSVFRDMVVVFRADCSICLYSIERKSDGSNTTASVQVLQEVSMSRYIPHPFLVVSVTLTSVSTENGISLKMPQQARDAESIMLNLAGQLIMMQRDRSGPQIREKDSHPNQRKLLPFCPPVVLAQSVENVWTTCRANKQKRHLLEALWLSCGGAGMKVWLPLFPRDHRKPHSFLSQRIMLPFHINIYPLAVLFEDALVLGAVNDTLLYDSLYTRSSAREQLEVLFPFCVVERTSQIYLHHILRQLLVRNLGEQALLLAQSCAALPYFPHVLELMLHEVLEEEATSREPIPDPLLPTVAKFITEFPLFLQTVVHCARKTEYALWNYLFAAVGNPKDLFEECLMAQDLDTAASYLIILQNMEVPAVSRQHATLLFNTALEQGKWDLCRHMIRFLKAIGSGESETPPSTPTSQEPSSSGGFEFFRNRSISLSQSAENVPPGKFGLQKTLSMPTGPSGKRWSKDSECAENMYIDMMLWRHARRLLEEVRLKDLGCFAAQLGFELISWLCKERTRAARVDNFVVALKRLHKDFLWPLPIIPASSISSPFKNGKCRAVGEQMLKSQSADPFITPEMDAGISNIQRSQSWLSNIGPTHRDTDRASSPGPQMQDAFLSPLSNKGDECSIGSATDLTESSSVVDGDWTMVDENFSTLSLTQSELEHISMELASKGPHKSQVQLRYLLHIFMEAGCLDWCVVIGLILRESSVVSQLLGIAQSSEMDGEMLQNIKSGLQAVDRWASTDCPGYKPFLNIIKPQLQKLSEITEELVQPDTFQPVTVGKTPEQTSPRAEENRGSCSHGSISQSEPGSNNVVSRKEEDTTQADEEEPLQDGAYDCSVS
UniProt Q62087: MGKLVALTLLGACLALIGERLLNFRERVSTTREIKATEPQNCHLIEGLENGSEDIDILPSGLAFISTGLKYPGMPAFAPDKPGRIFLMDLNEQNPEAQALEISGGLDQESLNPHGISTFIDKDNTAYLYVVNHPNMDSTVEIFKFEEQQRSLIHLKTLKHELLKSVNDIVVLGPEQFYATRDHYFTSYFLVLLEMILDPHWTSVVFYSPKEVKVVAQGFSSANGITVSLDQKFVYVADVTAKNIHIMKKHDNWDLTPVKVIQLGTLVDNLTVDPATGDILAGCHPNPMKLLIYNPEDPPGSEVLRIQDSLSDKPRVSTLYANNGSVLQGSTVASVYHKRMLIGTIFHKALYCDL
UniProt Q64373, whole entry: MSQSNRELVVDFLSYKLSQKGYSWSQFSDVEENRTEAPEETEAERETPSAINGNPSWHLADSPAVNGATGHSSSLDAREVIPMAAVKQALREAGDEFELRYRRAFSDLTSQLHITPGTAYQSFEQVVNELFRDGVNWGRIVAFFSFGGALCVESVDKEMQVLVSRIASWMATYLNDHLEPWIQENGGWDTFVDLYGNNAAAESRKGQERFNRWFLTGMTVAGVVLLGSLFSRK
UniProt Q64433, whole entry: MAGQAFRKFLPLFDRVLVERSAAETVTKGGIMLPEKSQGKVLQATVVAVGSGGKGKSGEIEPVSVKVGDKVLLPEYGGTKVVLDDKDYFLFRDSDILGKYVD
UniProt Q62348: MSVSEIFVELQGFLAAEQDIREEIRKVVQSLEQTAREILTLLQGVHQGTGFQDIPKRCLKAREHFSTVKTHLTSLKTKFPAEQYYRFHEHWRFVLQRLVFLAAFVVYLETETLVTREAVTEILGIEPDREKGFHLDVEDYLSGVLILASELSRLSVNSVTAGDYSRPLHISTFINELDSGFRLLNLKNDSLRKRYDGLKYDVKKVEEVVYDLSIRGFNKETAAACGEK

The targets below were run with CN[C@@H]1C[C@H]2O[C@@](C)([C@@H]1OC)n1c3ccccc3c3c4c(c5c6ccccc6n2c5c31)C(=O)NC4 [staurosporine] (assay: log2 fold change of tryptic peptide abundance, ligand vs vehicle (limited proteolysis) (log2 ratio); higher = more trypsin-susceptible (destabilized)). Settings: ligand concentration: 20 uM; sample: mouse liver crude lysate; replicate design: treated separately.
With “UniProt Q64339 (peptide sequence: IGVPAFQQR, peptide start residue: 36)” the log2 fold change was -0.231. “UniProt Q62376 (peptide sequence: EFEVYGPIKR, peptide start residue: 122)” gave a log2 fold change of 0.409. In the case of “UniProt Q64737 (peptide sequence: CFGPTAQAAQLESSKK, peptide start residue: 93)”, the log2 fold change is reported as -0.278. For “UniProt Q64430 (peptide sequence: YNPAVIQPR, peptide start residue: 523)”, the log2 fold change was 0.28. Work on “UniProt Q69ZJ7 (peptide sequence: TPEQTSPR, peptide start residue: 1365)” yielded a log2 fold change of -0.221. With “UniProt Q62087 (peptide sequence: IQDSLSDKPR, peptide start residue: 306)” the log2 fold change was -0.147. “UniProt Q64373 (peptide sequence: EVIPMAAVK, peptide start residue: 79)” gave a log2 fold change of 0.118. Work on “UniProt Q64433 (peptide sequence: DSDILGKYVD, peptide start residue: 93)” yielded a log2 fold change of 0.595. In the case of “UniProt Q62348 (peptide sequence: EAVTEILGIEPDREK, peptide start residue: 117)”, the log2 fold change is reported as -0.228.
